Patent US9855256B2, “Cyclooxygenase inhibitor and calcium channel antagonist compositions and methods for use in urological procedures” (Omeros Corporation, priority 2005, dated 2018)
At least one structure is not confirmed: it was looked up by name or label, or the drawing left a doubt. Ends that are not written are not given here.

Tested on: BK-induced PGE2
Test: PGE2 determination: release of PGE2 from urinary bladder strips (EIA), Example I
Assay type: cell-based
Settings: bradykinin stimulation of rat bladder tissue strips

RPPGFSPFR [bradykinin]
t1/2 for formation of PGE2: about 7.5 minutes
time to maximum PGE2 formation: ≤ 30 min
